Assay results from article PMC8134551.
Read-outs that look alike come from different tables or passages of the source. Results are given in words; binding and its absence hold for the method and conditions named. In cells and extracts the contact can be indirect. Here binding means that the protein was enriched with, or labelled near, the bait; the list need not be complete. One block for each molecule: values may come before it.

Sequences of proteins named here, by UniProt entry; tags and fusion partners are left off.
UniProt O95817: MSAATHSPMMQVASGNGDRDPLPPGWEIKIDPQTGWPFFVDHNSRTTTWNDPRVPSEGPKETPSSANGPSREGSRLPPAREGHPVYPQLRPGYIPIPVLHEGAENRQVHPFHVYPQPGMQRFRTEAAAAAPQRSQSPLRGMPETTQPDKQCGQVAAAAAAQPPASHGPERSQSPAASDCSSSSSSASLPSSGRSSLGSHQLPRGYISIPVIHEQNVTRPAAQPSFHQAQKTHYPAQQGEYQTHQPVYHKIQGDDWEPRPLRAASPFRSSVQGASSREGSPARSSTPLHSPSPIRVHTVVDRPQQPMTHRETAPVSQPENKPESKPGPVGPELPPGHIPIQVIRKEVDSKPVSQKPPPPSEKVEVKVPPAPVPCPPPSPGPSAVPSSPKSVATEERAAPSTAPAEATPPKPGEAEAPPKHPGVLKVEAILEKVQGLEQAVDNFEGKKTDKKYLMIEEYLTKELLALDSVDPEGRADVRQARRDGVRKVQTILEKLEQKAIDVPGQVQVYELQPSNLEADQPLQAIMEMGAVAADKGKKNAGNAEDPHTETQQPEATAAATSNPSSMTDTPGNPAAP
UniProt Q14315: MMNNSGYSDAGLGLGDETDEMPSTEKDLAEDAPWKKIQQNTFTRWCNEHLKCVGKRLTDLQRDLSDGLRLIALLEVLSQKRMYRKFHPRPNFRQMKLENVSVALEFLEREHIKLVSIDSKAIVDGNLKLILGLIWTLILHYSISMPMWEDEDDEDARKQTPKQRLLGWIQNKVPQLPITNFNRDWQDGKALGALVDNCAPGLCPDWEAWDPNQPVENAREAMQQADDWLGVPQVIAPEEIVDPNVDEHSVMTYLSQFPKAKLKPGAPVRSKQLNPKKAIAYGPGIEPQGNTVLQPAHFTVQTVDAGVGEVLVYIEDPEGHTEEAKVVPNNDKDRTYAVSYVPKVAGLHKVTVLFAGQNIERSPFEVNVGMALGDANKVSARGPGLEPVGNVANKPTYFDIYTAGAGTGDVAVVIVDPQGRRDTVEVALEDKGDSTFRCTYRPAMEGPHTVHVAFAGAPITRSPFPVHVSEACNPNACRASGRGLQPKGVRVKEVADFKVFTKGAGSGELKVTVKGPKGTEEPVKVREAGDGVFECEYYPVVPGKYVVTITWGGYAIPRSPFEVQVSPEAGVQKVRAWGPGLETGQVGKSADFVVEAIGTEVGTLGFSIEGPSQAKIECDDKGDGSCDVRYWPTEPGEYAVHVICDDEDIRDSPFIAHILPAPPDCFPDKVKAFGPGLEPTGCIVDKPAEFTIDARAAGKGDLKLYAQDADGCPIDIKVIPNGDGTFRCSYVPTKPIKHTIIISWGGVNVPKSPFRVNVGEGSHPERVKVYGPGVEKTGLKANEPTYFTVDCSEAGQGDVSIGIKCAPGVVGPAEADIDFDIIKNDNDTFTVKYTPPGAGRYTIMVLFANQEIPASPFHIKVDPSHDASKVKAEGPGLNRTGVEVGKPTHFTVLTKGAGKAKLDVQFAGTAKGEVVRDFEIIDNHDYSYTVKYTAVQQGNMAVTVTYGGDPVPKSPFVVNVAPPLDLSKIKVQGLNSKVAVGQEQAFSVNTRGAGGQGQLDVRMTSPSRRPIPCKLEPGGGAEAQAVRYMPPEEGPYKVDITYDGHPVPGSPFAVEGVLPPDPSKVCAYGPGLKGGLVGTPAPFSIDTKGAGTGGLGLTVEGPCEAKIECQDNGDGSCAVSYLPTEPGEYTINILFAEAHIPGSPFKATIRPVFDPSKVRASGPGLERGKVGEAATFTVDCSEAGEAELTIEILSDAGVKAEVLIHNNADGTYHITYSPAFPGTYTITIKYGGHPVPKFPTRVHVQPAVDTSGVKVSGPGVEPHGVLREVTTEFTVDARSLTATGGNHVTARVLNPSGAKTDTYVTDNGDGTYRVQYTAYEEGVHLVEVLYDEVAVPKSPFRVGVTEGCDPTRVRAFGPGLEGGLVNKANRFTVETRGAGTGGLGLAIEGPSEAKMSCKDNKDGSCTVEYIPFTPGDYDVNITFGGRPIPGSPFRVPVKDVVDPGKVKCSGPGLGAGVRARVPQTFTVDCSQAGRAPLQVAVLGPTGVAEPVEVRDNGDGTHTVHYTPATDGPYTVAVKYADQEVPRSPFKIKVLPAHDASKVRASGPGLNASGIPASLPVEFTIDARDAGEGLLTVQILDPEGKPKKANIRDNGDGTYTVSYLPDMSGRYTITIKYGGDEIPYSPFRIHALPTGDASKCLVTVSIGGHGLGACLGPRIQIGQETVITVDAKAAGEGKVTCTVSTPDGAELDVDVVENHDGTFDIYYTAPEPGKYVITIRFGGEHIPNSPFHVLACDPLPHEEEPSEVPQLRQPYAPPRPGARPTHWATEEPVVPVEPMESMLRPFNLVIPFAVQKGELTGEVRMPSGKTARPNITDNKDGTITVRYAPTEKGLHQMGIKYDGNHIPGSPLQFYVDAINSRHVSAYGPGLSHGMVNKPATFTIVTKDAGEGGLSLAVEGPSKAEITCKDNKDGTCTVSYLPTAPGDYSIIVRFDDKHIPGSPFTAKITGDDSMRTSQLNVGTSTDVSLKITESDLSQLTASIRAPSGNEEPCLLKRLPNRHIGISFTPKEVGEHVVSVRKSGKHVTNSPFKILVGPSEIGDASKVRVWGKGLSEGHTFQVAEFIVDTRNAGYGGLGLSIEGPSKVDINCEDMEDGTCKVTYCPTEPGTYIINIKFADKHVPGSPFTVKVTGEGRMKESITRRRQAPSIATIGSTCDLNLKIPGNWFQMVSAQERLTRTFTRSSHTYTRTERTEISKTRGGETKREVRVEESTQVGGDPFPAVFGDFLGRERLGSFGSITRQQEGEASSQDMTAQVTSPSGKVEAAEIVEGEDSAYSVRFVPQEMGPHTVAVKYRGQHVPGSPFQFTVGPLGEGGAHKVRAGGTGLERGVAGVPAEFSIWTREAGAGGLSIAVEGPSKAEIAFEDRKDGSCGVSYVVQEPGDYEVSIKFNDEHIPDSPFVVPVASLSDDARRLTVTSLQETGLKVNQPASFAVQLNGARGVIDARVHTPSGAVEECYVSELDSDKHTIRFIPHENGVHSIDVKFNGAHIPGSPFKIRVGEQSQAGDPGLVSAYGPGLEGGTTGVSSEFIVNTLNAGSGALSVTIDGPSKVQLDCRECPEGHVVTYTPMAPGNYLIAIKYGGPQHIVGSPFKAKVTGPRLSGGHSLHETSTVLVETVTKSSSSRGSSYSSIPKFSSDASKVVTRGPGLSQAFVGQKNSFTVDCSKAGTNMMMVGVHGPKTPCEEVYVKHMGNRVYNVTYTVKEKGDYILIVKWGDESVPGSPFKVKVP

Columns and labels:
Assay in all cases: affinity purification with mass spectrometry; antibody (5 µg) crosslinked to Dynabeads Protein G; incubated with human LV myofilament-enriched protein lysate (200 µl of 2 µg/µl) 10 min at room temperature; washed seven times with TBS-T; eluted with 0.15% TFA; in-solution digestion, LC-MS/MS; immunoprecipitations for BAG3, HSP70 and HSPB8
[1] = biological target: T1, HSPB8 (human (endogenous in left ventricle tissue)) (UniProt Q9UJY1)
T1 sequence: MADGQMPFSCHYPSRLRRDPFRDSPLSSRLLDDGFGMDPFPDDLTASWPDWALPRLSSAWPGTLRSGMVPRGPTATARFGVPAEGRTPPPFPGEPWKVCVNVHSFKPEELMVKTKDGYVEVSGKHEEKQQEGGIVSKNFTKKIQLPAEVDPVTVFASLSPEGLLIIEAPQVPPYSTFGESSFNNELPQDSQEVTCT

[2] = biological target: Bcl2-associated athanogene 3 (BAG3) (human (endogenous in left ventricle tissue)) (UniProt O95817)
[3] = biological target: Bcl2-associated athanogene 3 (BAG3) (human (endogenous in left ventricle tissue)) (UniProt O95817); remark: listed apart in the source
[4] = biological target: HSP70 (human (endogenous in left ventricle tissue))

binding [1]: binds
Molecule: HSP70

binding [2]: binds
binding [1]: binds
Molecule: filamin-C (from UniProt Q14315 1-2725)

binding [1]: binds
Molecule: Bcl2-associated athanogene 3 (BAG3) (from UniProt O95817 1-575)

binding [3]: binds
binding [4]: binds
B1: HSPB8 (protein, UniProt Q9UJY1 1-196)
chain: T1 sequence
